From PubChem BioAssay AID624297 (National Center for Advancing Translational Sciences (NCATS), 2012)
The whole screen tested about 340,000 compounds, of which about 6,200 (1.8%) were called active. Inconclusive means that the source gave no clear call. Such entries were picked first, then a sample of the others. Calls follow the shape of the dose curve; as a rule, active = well fitted activation curve with a large enough effect; inconclusive = small, poorly fitted or top-dose-only effect; inactive = no such curve, though single readings can be large or run the other way. Where the call is inconclusive, the potency comes from a doubtful curve fit.

Assay: A quantitative high throughput screen for small molecules that induce DNA re-replication in SW480 colon adenocarcinoma cells. Also: nearly all actives have a fitted effect of over 55% in size. As to re-replication activation: % of control where 0% means no effect.
Conditions: Hoechst DNA content imaging, 48 h; re-replication activation: at 46.1 µM (top of the series) unless noted
Text: H Molecular Libraries Probe Production Network [MLPCN] NIH Chemical Genomics Center [NCGC] MLPCN Grant: Fast Track K99 CA136555 Assay Provider: Melvin DePamphilis, NICHD, NIH Assay Overview Eukaryotic cells normally restrict genome duplication to once per cell division. When this process is aberrant, DNA re-replication occurs when cells reinitiate DNA replication before the first round of replication is complete. DNA re-replication induces the DNA damage response, arrests cell proliferation, and triggers apoptosis. The cell cycle components cyclin A, Cdt-1, Cdc6 and geminin are critical regulators of this process and their misregulation results in DNA re-replication in normal and cancer cells. To identify compounds that induce re-replication in normal cells, an image-based assay was used to measure DNA content of nuclei, as detected by the fluorescent DNA binding dye, Hoechst. Cell nuclei were imaged by a fluorescence scanning plate imager and compounds that induce DNA re-replication were identified by the increase of nuclei with elevated fluorescence intensity
For screening, 250 cells in 5 uL/well were dispensed into black clear 1536-well plates (Aurora) using a solenoid-based dispenser. Following transfer of 23 nL compound or DMSO vehicle by a pin tool, the plates were incubated 48 hr at 37 C and 5% CO2. After addition of 1 uL/well Hoescht stain, the plates were incubated 40 min at 37 C, 5% CO2 and total intensity of fluorescent objects (nuclei) were enumerated by an Acumen Explorer Ex3 (TTP LabTech) fluorescence scanning plate imager (405 nm excitation, 500-530 nm emission). Keywords: NIH Roadmap, MLPCN, MLI, MLSMR, qHTS, NCGC, DNA replication, cancer
Potency is read from the fitted curve at half-maximal effect.

Row | SMILES | Potency | re-replication activation
1 | CNCCC=C1c2ccccc2C=Cc2ccccc21 | inconclusive: 17.8 µM [activator, partial curve, poor fit] | –
2 | C=CCC[C@@H](Cc1ccc(F)cc1)C(=O)OC[C@@H](NC(=O)[C@@H](CC=C)CC(=O)N(CCO)Cc1ccccc1)c1ccccc1 | – | inactive: 25.4%
3 | O=C(CSc1nnc2ccc3ccccc3n12)N1CCOCC1 | inconclusive: 0.0291 µM [activator, full curve, poor fit] | –
4 | O=C(Nc1ccc2c(c1)OCO2)c1sc2cc(Cl)ccc2c1Cl | inconclusive: 3.26 µM [activator, full curve, poor fit] | –
5 | CCCN(CCC)S(=O)(=O)c1ccc(C(=O)N2CCCc3ccccc32)cc1 | inconclusive: 32.6 µM [activator, partial curve, poor fit] | –
6 | C/C(=N\Nc1cccc2cccnc12)c1ccc[nH]1 | – | inactive: -1.43%
7 | CCOC(=O)c1ccc(NC(=S)N(CCN2CCCCCC2)Cc2cccs2)cc1 | inconclusive: 23.1 µM [activator, partial curve, poor fit] | –
8 | COc1cc2c(C)nc3c(c(C)nn3-c3ccccc3)c2cc1OC | – | inactive: -2.09%
9 | NNc1ncnc2sc3c(c12)CCC3 | inconclusive: 29.1 µM [activator, single point] | –
10 | Cc1ccc(S(=O)(=O)NNC(=O)Nc2ccc(C)c(C)c2)c(C)c1 | inconclusive: 0.0651 µM [activator, partial curve, poor fit] | –
11 | CCOc1ccc(C(=O)N2CCC3(CC2)NCCc2[nH]cnc23)cc1OCC | – | inactive: -1.46%
12 | COc1ccc(-n2c3c(cc(C(=O)NCC(=O)c4ccccc4)c2=O)C(=O)CC(C)(C)C3)cc1 | inconclusive: 29.1 µM [activator, single point] | –
13 | Cc1cnc(C=NNC(N)=S)c2cccc(N)c12 | inconclusive: 5.8 µM [activator, full curve] | –
14 | C[C@H](CO)N1C[C@H](C)[C@@H](CN(C)C(=O)Nc2ccc(C(F)(F)F)cc2)Oc2ccc(NC(=O)C3CC3)cc2C1=O | inconclusive: 29.1 µM [activator, single point] | –
15 | COc1ccc(N(C)S(=O)(=O)c2cccc(C(=O)NC3CCC(C)CC3)c2)cc1 (centres undefined) | inconclusive: 8.2 µM [activator, partial curve, poor fit] | –
16 | COc1ccccc1C(=O)N1CCC(N2CCN(c3ccccc3OC)CC2)CC1 | – | inactive: 13.2%
17 | CCOC(=O)c1c(C)nc2cc(C)ccn12 | inconclusive: 29.1 µM [activator, single point] | –
18 | Cc1cc(C(=O)OCC(=O)NCc2ccco2)c(C)o1 | inconclusive: 4.11 µM [activator, full curve, poor fit] | –
19 | COc1ccc(Cn2cccc(NC(=O)Nc3cccc(C#N)c3)c2=O)cc1 | inconclusive: 18.4 µM [activator, partial curve, poor fit] | –
20 | Nc1cc2c(cc1N)-c1ccccc1C2 | inconclusive: 16.4 µM [activator, partial curve, poor fit] | –
21 | O=C(c1cccc(N2C(=O)C3CC=CCC3C2=O)c1)N1CCN(c2ccccc2)CC1 (centres undefined) | – | inactive: -2.47%
22 | Cc1ccc(C(=O)NCC(=O)OCc2nnc(-c3ccc([N+](=O)[O-])cc3)o2)s1 | – | inactive: -10.8%
23 | CCOc1ccc(/C=C2\SC(=S)N(CCCC(=O)NCCCN3CCOCC3)C2=O)cc1 | active: 16.4 µM | –

Row | SMILES | Potency | re-replication activation
24 | C=C1CCC[C@]2(C)C[C@H]3OC(=O)C(CNC(CC)CO)[C@H]3CC12 (some centres undefined) | inconclusive: 20.6 µM [activator, single point] | –
25 | Cc1cccc(NCCC(=O)c2ccc([N+](=O)[O-])cc2)c1C | – | inactive: 133%
26 | Cc1nn(CC(O)CN2c3ccccc3Sc3ccccc32)c(C)c1Br (centres undefined) | inconclusive: 29.1 µM [activator, single point] | –
27 | O=C(Nc1ccccc1)c1cccc(S(=O)(=O)NCc2ccco2)c1 | – | inactive: -3.38%
28 | Cc1ccc(N(CC(=O)Nc2ccc(F)c(Cl)c2)S(=O)(=O)c2c(C)noc2C)cc1 | – | inactive: 8.88%
29 | COc1ccc(C(=O)CSC#N)cc1OC | inconclusive: 20.6 µM [activator, single point] | –
30 | CCCN1CCc2c(sc(NC(=S)NC(=O)c3ccccc3)c2C#N)C1 | inconclusive: 25.9 µM [activator, single point] | –
31 | COc1ccc(-c2ccc3oc(-c4ccsc4)cc(=O)c3c2)cn1 | active: 2.91 µM | –
32 | CCCCS/C(=C(/C#N)C(N)=O)c1cc2c([nH]1)CCCC2 | inconclusive: 10.3 µM [activator, partial curve, poor fit] | –
33 | C#CCOCCOCCOCCNc1nc(N2CCN(C(=O)[C@H](CCCCN)n3cc([C@@H](N)C(C)CC)nn3)CC2)nc(N2CCN(C(=O)[C@H](Cc3cc4ccccc4[nH]3)n3cc([C@@H](N)CC(C)C)nn3)CC2)n1 (some centres undefined) | inconclusive: 16.4 µM [activator, partial curve, poor fit] | –
34 | NNc1nnc2c3cc(F)ccc3n(Cc3ccccc3)c2n1 | inconclusive: 0.651 µM [activator, full curve, poor fit] | –
35 | CCCCCCCCC(NC(=O)c1ccc(C#N)cc1)C(=O)NCCC (centres undefined) | – | inactive: -2.6%
36 | Fc1ccc(-[n+]2nc(Nc3ccccc3)sc2-c2ccc(OCc3ccccc3)cc2)cc1 | – | inactive: 0.27%
37 | Cc1cc2ncn(-c3ncnc4scc(-c5ccccc5)c34)c2cc1C | – | inactive: -1.1%
38 | Cc1ccccc1NC(=S)NC(=O)C1CCCCC1 | inconclusive: 0.517 µM [activator, full curve] | –
39 | CN1CCN(/N=C/c2ccc(-c3ccccc3)cc2)CC1 | inconclusive: 29.1 µM [activator, single point] | –
40 | CC(=O)Nc1ccc(S(=O)(=O)NCC(=O)OCC(=O)NNC(=O)c2ccccc2)cc1 | – | inactive: -18.4%
41 | CCS(=O)(=O)NCCc1cc2cc(C)c(C)cc2[nH]c1=O | – | inactive: -0.293%
42 | COc1cccc(CN2CC(C(=O)NCc3ccc(C)c(F)c3)CCC2=O)c1 (centres undefined) | inconclusive: 29.1 µM [activator, single point] | –
43 | Cn1c(SCc2c(F)cccc2Cl)nc2ccccc2c1=O | – | inactive: -5.69%
44 | CC1(C(=O)OCC(=O)Nc2ccc3ccccc3c2)CC1(Cl)Cl (centres undefined) | – | inactive: 0.296%
45 | COC(=O)/C(=C\c1ccc2c(c1)c1ccccc1n2C)NC(=O)c1ccccc1 | inconclusive: 32.6 µM [activator, partial curve, poor fit] | –
46 | Cc1ccc(NC(=O)c2ccc(OC(=O)c3ccco3)cc2)cc1 | inconclusive: 29.1 µM [activator, single point] | –

Single entries from the results shown:
re-replication activation with Cc1cc2ncn(-c3ncnc4scc(-c5ccccc5)c34)c2cc1C is entered as inactive: -1.1%
Potency with Cc1nn(CC(O)CN2c3ccccc3Sc3ccccc32)c(C)c1Br (centres undefined) is entered as inconclusive: 29.1 µM [activator, single point]
re-replication activation with CCS(=O)(=O)NCCc1cc2cc(C)c(C)cc2[nH]c1=O is entered as inactive: -0.293%

More compounds.

Row | SMILES | Potency | re-replication activation
47 | C[C@@H]1NS(=O)(=O)[C@H]2C[C@@H]3C=C[C@]2(O3)[C@H]1OC(=O)c1ccccc1Br | inconclusive: 1.03 µM [activator, full curve, poor fit] | –
48 | O=C(O)C1=C(OCc2ccccc2)C(=O)NCC1 | – | inactive: 4.36%
49 | CC(C)C[C@@]12C(=O)N(c3cccc(Cl)c3)C(=O)N1[C@H](c1ccc(Br)cc1)[C@@H]1C(=O)N(C(C)(C)C)C(=O)[C@@H]12 | inconclusive: 1.03 µM [activator, single point] | –
50 | S=C(Nc1ccc2nc(-c3ccccn3)c(-c3ccccn3)nc2c1)N1CCCCCC1 | inconclusive: 14.6 µM [activator, single point] | –
51 | COc1cc(NC(=O)C2CCN(S(=O)(=O)c3ccc(Cl)cc3)CC2)ccc1-n1cnnn1 | inconclusive: 18.4 µM [activator, single point] | –
52 | COc1ccc(NC(=O)COc2ccc(C(=O)OCC(=O)N(C(C)C)C(C)C)cc2OC)cc1 | – | inactive: -49.6%
53 | O=C(O)c1ccccc1SC1CC(=O)N(c2ccc3c(c2)OCO3)C1=O (centres undefined) | – | inactive: -11.6%
54 | O=C(O)CC1(CC(=O)Nc2ccc3c(c2)OCCCO3)CCCCC1 | inconclusive: 29.1 µM [activator, single point] | –
55 | O=[N+]([O-])c1c(NCCCO)cc(Sc2nc3ccccc3s2)c2nonc12 | inconclusive: 6.51 µM [activator, single point] | –
56 | CCCCOC(=O)C1=C(N)N2C(=O)C(C)SC2=C(C(=O)OCC)C1c1ccc(O)c(OC)c1 (centres undefined) | inconclusive: 7.31 µM [activator, partial curve, poor fit] | –
57 | O=C(C#Cc1ccccc1)Nc1ccc(F)cc1 | inconclusive: 23.1 µM [activator, single point] | –
58 | C=CC[C@@H](Cc1ccc(F)cc1)C(=O)OC[C@@H]1CCCN1C(=O)[C@@H](CC=C)CC(=O)N[C@H](CO)Cc1ccccc1 | – | inactive: -1.58%
59 | CC(=O)OC1CCC2C3CCC4OC(=O)CCC4C3CCC12C (centres undefined) | – | inactive: -4.97%
60 | Clc1cccc(Cl)c1C1Nc2cccc3cccc(c23)N1 | inconclusive: 0.731 µM [activator, partial curve, poor fit] | –
61 | Oc1ccc(C(=Nc2ccccc2)c2ccccc2)c(O)c1 | – | inactive: 23.7%
62 | CCC1CCCCN1S(=O)(=O)c1ccc(C(=O)Nc2nnc(-c3ccccc3Cl)o2)cc1 (centres undefined) | inconclusive: 11.2 µM [activator, partial curve] | –
63 | O=C(OCCOCCN=C1NS(=O)(=O)c2ccccc21)c1ccccc1Br | – | inactive: -16.9%
64 | C/C(=N\NC(=O)c1cc(C)nc2ccccc12)c1ccncc1 | active: 5.17 µM | –
65 | Cc1ccc(S(=O)(=O)N2CCN(C(=O)Cc3c(F)cccc3Cl)CC2)cc1 | – | inactive: -1.38%
66 | Cc1cccc(C)c1-n1c(C)cc(/C=N\Nc2ccc([N+](=O)[O-])cn2)c1C | inconclusive: 16.4 µM [activator, single point] | –
67 | CC(NC(=O)c1cccs1)C(c1cccs1)N1CCOCC1 (centres undefined) | inconclusive: 29.1 µM [activator, partial curve, poor fit] | –
68 | CCOC(=O)C(=Cc1ccc(Br)cc1)C(=O)OCC | active: 7.31 µM | –
69 | CC(C)(C)OC(=O)N/N=C\c1ccc([N+](=O)[O-])s1 | inconclusive: 29.1 µM [activator, single point] | –
